# Test results from publication PMC11040358.
# Amino acid sequences for entries named in this document (tags omitted).
# UniProt P70398: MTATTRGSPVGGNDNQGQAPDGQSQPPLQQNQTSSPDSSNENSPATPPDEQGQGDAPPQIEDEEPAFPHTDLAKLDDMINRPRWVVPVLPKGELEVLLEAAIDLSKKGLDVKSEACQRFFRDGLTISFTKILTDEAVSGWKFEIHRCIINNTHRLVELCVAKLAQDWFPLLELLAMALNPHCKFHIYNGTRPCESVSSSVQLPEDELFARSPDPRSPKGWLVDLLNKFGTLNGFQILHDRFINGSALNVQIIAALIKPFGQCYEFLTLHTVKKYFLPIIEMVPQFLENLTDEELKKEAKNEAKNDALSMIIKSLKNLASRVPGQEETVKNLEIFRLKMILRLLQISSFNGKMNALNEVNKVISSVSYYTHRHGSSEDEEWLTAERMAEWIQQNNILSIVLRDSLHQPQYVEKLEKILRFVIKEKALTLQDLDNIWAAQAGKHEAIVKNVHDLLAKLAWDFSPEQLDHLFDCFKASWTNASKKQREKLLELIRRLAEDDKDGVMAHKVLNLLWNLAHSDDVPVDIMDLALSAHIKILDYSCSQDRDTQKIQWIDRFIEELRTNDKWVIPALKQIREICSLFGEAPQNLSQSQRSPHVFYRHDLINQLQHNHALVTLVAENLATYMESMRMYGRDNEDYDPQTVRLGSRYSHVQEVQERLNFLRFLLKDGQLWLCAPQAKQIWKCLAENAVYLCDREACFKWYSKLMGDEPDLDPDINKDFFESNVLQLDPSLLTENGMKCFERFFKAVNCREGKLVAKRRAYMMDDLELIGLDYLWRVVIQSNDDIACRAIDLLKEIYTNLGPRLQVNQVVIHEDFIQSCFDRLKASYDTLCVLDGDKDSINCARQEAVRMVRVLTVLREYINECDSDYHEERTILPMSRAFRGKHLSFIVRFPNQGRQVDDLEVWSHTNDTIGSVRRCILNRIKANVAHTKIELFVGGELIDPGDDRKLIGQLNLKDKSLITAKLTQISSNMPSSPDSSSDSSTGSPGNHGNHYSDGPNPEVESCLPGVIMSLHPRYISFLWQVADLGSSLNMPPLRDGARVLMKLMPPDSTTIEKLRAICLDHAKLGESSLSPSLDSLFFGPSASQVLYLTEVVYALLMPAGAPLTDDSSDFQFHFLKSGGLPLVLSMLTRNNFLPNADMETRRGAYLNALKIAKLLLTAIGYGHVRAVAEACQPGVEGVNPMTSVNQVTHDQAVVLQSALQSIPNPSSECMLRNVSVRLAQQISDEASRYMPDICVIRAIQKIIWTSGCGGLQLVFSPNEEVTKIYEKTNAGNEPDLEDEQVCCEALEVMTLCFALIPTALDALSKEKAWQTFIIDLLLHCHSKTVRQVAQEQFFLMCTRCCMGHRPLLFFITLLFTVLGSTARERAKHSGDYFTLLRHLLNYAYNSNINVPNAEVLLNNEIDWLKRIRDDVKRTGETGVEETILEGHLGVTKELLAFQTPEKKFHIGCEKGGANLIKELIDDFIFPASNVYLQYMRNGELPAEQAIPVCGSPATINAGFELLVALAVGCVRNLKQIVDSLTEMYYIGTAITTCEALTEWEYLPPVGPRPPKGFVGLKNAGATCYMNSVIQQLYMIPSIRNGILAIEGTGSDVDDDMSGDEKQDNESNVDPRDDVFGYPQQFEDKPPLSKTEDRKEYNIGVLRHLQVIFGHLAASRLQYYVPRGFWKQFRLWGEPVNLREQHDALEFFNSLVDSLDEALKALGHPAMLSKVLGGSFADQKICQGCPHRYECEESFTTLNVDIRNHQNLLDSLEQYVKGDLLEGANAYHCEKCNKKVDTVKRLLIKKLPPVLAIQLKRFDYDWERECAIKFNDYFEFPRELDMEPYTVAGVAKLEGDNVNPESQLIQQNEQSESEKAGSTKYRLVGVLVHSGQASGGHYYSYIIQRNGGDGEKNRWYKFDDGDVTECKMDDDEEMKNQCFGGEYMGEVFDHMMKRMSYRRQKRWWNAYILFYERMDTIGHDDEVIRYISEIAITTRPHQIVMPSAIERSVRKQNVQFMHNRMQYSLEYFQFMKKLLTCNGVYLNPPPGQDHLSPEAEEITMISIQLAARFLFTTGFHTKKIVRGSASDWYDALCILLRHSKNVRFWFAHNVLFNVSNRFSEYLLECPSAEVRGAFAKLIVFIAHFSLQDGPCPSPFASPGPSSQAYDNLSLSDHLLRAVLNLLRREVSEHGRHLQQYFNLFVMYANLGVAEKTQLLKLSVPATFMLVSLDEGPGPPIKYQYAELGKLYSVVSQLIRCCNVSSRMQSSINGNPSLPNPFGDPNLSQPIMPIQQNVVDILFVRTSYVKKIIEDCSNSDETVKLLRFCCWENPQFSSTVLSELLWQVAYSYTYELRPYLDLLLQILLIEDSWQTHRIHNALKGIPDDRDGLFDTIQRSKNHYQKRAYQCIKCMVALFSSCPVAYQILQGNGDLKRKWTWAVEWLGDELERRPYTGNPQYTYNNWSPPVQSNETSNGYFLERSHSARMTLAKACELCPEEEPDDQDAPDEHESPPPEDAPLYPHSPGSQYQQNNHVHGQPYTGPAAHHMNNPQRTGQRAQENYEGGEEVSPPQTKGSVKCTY
# UniProt P56399: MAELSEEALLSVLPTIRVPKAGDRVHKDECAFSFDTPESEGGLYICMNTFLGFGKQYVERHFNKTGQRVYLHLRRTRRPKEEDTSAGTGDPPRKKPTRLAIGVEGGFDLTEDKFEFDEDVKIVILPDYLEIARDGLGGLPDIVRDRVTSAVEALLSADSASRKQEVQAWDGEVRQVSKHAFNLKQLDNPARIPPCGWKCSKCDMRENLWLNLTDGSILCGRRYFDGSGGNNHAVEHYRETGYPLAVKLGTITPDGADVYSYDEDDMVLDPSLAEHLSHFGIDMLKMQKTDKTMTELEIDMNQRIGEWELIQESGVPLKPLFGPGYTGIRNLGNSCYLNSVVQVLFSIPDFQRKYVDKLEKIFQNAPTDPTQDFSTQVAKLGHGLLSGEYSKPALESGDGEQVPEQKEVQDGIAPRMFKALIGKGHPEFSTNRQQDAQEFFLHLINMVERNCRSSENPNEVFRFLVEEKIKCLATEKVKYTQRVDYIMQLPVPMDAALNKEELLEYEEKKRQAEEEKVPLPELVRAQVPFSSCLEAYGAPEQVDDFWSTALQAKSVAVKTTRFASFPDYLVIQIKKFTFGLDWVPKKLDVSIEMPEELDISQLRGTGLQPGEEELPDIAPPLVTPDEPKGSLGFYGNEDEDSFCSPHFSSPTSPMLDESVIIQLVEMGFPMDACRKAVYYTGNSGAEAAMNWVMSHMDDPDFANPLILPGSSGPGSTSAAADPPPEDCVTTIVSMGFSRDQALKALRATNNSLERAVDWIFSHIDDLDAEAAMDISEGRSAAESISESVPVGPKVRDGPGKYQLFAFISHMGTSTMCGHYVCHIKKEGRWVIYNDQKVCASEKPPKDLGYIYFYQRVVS
# UniProt P63094: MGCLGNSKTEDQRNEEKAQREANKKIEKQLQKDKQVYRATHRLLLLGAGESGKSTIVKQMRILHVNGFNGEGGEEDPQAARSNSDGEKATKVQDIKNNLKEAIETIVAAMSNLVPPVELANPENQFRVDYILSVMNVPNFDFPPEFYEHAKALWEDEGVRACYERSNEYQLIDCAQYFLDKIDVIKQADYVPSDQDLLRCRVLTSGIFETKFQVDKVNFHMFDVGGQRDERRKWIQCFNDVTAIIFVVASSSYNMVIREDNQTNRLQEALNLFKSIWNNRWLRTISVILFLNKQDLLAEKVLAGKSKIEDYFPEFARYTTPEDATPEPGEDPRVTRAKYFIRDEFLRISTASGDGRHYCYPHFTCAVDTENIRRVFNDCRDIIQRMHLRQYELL
# UniProt Q61414: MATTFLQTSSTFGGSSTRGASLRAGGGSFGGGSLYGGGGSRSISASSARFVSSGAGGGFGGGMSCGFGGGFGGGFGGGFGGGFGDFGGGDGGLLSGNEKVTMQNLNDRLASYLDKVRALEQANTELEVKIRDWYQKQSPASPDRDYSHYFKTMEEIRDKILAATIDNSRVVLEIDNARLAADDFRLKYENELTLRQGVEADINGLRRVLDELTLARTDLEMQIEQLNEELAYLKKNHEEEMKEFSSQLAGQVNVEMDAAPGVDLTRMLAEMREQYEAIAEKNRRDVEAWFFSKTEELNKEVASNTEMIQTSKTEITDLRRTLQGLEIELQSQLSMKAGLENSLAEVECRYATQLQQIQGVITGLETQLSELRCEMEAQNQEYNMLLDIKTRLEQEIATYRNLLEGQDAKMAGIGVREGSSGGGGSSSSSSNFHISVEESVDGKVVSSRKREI
# UniProt Q7TSY6: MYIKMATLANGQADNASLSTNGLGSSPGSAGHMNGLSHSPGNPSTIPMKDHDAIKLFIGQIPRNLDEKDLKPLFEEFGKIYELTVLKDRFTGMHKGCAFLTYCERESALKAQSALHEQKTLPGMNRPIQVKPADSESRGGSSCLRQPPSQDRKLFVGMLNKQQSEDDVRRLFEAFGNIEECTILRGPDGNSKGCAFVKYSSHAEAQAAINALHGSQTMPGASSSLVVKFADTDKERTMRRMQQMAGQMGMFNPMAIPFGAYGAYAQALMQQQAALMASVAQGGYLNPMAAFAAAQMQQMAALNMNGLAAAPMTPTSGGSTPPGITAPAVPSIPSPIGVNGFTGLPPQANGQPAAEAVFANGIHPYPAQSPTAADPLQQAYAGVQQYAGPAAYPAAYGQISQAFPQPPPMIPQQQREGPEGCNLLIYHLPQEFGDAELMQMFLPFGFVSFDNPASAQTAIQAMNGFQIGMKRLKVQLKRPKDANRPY
# UniProt Q9DBH0: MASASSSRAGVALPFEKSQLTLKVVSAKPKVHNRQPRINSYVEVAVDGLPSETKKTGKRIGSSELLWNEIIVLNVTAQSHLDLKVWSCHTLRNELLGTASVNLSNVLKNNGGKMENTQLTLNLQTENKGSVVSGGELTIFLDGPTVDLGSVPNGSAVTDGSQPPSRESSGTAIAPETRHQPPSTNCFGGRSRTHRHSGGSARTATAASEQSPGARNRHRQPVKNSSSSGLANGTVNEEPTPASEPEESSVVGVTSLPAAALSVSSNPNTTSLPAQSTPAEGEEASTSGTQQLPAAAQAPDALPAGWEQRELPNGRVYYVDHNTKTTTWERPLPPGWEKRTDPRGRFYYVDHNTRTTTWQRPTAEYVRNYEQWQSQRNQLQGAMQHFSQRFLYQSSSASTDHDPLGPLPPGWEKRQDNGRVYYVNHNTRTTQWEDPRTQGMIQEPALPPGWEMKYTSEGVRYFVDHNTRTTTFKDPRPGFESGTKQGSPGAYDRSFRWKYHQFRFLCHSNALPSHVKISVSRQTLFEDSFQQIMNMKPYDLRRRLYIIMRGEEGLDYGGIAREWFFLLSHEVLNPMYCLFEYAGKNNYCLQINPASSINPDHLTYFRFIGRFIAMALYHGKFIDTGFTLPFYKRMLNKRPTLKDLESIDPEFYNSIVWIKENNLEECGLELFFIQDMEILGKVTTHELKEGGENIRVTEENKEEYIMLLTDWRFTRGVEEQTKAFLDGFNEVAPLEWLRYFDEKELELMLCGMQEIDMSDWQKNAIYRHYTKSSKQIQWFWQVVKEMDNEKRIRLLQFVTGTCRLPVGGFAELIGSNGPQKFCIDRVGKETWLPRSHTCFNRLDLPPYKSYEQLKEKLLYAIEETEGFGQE
# UniProt Q9DCV7: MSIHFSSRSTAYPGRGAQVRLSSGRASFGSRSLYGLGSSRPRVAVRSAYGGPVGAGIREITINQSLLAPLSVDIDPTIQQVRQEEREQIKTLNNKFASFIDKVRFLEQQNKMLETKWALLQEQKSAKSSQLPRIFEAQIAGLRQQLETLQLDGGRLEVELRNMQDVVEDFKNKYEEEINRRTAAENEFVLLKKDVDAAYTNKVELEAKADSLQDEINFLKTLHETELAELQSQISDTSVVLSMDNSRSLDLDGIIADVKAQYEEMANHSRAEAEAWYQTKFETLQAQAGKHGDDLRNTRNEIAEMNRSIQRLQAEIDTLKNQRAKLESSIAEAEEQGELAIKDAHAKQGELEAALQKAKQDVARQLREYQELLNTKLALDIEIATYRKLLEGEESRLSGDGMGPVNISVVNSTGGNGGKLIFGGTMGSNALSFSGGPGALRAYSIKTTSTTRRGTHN
# No constants are given. Whether binding was seen depends on the method and setting. Binding seen in cells or lysates may run through a third protein. These calls come from enrichment with a bait or labelling near it, and not all partners need be listed. Sequences can lack the tags named with a protein.
# T1: Flag‐tagged Tipe1 (bait of the IP/mass spectrometry) (UniProt Q8K288)
# T1 sequence: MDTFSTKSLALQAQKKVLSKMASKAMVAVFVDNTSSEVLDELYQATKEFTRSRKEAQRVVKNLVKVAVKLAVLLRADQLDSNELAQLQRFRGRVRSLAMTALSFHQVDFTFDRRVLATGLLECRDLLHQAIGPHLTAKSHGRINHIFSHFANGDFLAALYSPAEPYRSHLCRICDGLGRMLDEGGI
# B1: Cp (protein, UniProt Q61147 20-1061)
# chain: RDKHYFIGITEAVWDYASGTEEKKLISVDTEQSNFYLQNGPDRIGRKYKKALYFEYTDGTFSKTIDKPAWLGFLGPVIKAEVEDKVYVHLKNLASRIYTFHAHGVTYTKEYEGAVYPDNTTDFQRADDKVLPGQQYVYVLHANEPSPGEGDSNCVTRIYHSHVDAPKDIASGLIGPLILCKKGSLYKEKEKNIDQEFVLMFSVVDENLSWYLEDNIKTFCSEPEKVDKDNEDFQESNRMYSINGYTFGSLPGLSMCAADRVKWYLFGMGNEVDVHSAFFHGQALTSRNYQTDIINLFPATLIDAYMVAQNPGVWMLSCQNLNHLKAGLQAFFQVRDCNKPSPEDNIQDRHVRHYYIAAEEVIWNYAPSGTDIFTGENLTALESDSRVFFEQGATRIGGSYKKMAYREYTDGSFTNRKQRGPDEEHLGILGPVIWAEVGDTIKVTFHNKGQHPLSIQPMGVSFTAENEGTYYGPPGRSSQQAASHVAPKETFTYEWTVPKEMGPTYADPVCLSKMYYSGVDPTKDIFTGLIGPMKICKKGSLLADGRQKDVDKEFYLFPTVFDENESLLLDDNIRMFTTAPDQVDKEDEDFQESNKMHSMNGFMYGNQPGLNMCLGESIVWYLFSAGNEADVHGIYFSGNTYLSKGERRDTANLFPHKSLTLLMNPDTKGTFDVECLTTDHYTGGMKQKYTVNQCQRQFEDFTVYLGERTYYVAAVEVEWDYSPSRAWEKELHHLQEQNVSNVFLDKEEFFIGSKYKKVVYRQFTDSSFREQVKRRAEDEHLGILGPPIHANVGDKVKVVFKNMATRPYSIHAHGVKTESSTVVPTLPGEVRTYTWQIPERSGAGREDSACIPWAYYSTVDRVKDLYSGLIGPLIVCRKSYVKVFSPKKKMEFFLLFLVFDENESWYLDDNIKTYSEHPEKVNKDNEEFLESNKMHAINGKMFGNLQGLTMHVKDEVNWYVMGMGNEIDLHTVHFHGHSFQYKHRGVYSSDVFDLFPGTYQTLEMFPQTPGTWLLHCHVTDHVHAGMATTYTVLPVEQETKSG
# B2: MAEA (captured in the mass spectrometry) (enzyme, UniProt Q4VC33 1-396)
# chain: MAVQESAAQLSMTLKVQEYPTLKVPYETLNKRFRAAQKNIDRETSHVTMVVAELEKTLSSCPAVDSVVSLLDGVVEKLSVLKRKAVESIQAEDESAKLCKRRIEHLKEHSSDQPAAASMWKRKRMDRMMVEHLLRCGYYNTAVKLARQSGIEDLVNIEMFLTAKEVEESLERRETATCLAWCHDNKSRLRKMKSCLEFSLRIQEFIELVRQNKRLDAVRHARKHFSQAEGSQLDEVRQVMGMLAFPPDTHISPYKDLLDPARWRMLIQQFRYDNYRLHQLGNSSVFTLTLQAGLSAIKTPQCYKEDGSSKSPDCPVCSRSLNKLAQPLPMAHCANSRLVCKISGDVMNENNPPMMLPNGYVYGYNSLLSIRQDDKVVCPRTKEVFHFSQAEKVYIM
# B3: Diras2 (protein, UniProt Q5PR73 1-199)
# chain: MPEQSNDYRVAVFGAGGVGKSSLVLRFVKGTFRESYIPTVEDTYRQVISCDKSICTLQITDTTGSHQFPAMQRLSISKGHAFILVYSITSRQSLEELKPIYEQICEIKGDVESIPIMLVGNKCDESPNREVQSSEAEALARTWKCAFMETSAKLNHNVKELFQELLNLEKRRTVSLQIDGKKSKQQKRKEKLKGKCVVM
# B4: Esyt1 (protein, UniProt Q3U7R1 1-1092)
# chain: MEHSPEEGASPEPSGQPPATDSTRDGGSGVPPAGPGAASEALAVLTSFGRRLLVLVPVYLAGAAGLSVGFVLFGLALYLGWRRVRDGKERSLRAARQLLDDEERITAETLYMSHRELPAWVSFPDVEKAEWLNKIVAQVWPFLGQYMEKLLAETVAPAVRGANPHLQTFTFTRVELGEKPLRIIGVKVHPSQRKDQILLDLNVSYVGDVQIDVEVKKYFCKAGVKGMQLHGVLRVILEPLTGDLPIVGAVSMFFIKRPTLDINWTGMTNLLDIPGLSSLSDTMIMDSIAAFLVLPNRLLVPLVPDLQDVAQLRSPLPRGIIRIHLLAARGLSSKDKYVKGLIEGKSDPYALVRVGTQTFCSRVIDEELNPHWGETYEVIVHEVPGQEIEVEVFDKDPDKDDFLGRMKLDVGKVLQAGVLDNWYPLQGGQGQVHLRLEWLSLLPDAEKLDQVLQWNRGITSRPEPPSAAILVVYLDRAQDLPLKKGNKEPNPMVQLSVQDVTRESKATYSTNSPVWEEAFRFFLQDPRSQELDVQVKDDSRALTLGALTLPLARLLTASELTLDQWFQLSSSGPNSRLYMKLVMRILYLDYSEIRFPTVPGAQDWDRESLETGSSVDAPPRPYHTTPNSHFGTENVLRIHVLEAQDLIAKDRFLGGLVKGKSDPYVKLKVAGKSFRTHVVREDLNPRWNEVFEVIVTSIPGQELEIEVFDKDLDKDDFLGRYKVSLTTVLNSGFLDEWLTLEDVPSGRLHLRLERLTPRPTAAELEEVLQVNSLIQTQKSSELAAALLSVFLERAEDLPLRKGTKPPSPYATITVGETSHKTKTVSQSSAPVWEESASFLIRKPHAESLELQVRGEGTGTLGSVSLPLSELLQEDQLCLDHWFALSGQGQVLMRAQLGILVSQHSGVEAHSHSYSHSHSSSSLNDEPEALGGPTHPASPVLEVRHRLTHGDSPSEAPVGPLGQVKLTVWYHSDEQKLISIIHSCRALRQNGRDLPDPYVSVLLLPDKNRSTKRKTPQKKRTLNPEFNERFEWDLPLDGTLRRKLDVSVKSNSSFMSRERELLGKVQLDLAEIDLSQGAAQWYDLMDDRDKGGS
# B5: GΑSP1 (encoded by Gprasp1) (protein, UniProt Q5U4C1 1-1347)
# chain: MTRAEVEPGAQAKAENKPGDENANAAEVEPEAPLVVRPKVRTQIMTGARPKVKPKGTPGARPKGETSTPGGAYAKCKPKAIPIARSKHDAQVWAPNKFRGESMSKMGKQCQISAADPPLLSNDSGMVAQAKCLPVDRELANMDTESIPKKANSPAGFQPSYGSEEGTNMGSWYRARPVPKGEAYENSDFKWADKPSGSPSFWNRDEASTRFRPRKSMKANNRFRHMAKQEANTMPRHKNKQEFYNISSSDSEDESGKTPWFWPKDKTKVWSKPKEEPNSRSWFRSKKEVRVESTSGSECENPTKSLFWSGEEAKSRSKPRARKGVNMRARQQAKREACSDAMSGAIDTNKKESWFLPEEKANVFSKSKTKKEPRTRAVPKEEVKTKARASTKQEARPEEEVLVGAWFWDTQESTMADRISIKTTFVEEEPIVGDWFWSEEEASVDSETCHTSRPRAKEEQVSSFCLGSGKKSSMESGPKATSKSMPVAKEDEVVIGSWFWADDEEINLQADDESIFGSWFWGTGENSLRSVGVNCEKMPKAGEKEVTDSWFWAGDVNTEAEVEEQARSASTKATIFVPWFWSEKQPNMDLGSEPCSDIMAGAEEEPIIGPWFWAKVDNSVEAEVNSKSSLEDEEEPIRSPWFGAREQTDMKYAAGIRYKPMAEAEDANKKSCVWAKEPCLYPTNRECLKSTLGEKEDTVDPWLWSNNYPRTKTITGSWLWAAEEGNIDDETGEKIKLPTLEDNAFNSWFWKENEESIVEAPKREEFRPEAEEEDIIGSWFWAGDEDRFEPAAKINEENKIASEDEDTVGSWFWGNEEASLEAVRRGTFESAPGIKEEKVTGSWFWTDKAKVGAGSQTVETGSETEEEAIFESLIWAAKKDSIQAGVKRVSKPKDDGNIAVGSWLWSSDKATKEAKTLIVSEASPENGKESVVKFGSRAKDEVINKTGSGDNCKHSTEAETIVGAWFWEGDEASFESNPVPVCKAVCEPESSAEHEPDPSRRPQSWDEVTVQFKAGPWGKAGFPPMNPFRFPKEAASLFAEMFGGKPKLVEVGPEREPEPQFPFQYDPSYRSVREIREHLKARESAQPENWSCNCIQCELRIGSEEFEELLLLMDRNRDPFIHEISKIAMGMRGASQFTRDFIRNSGVVSLIEALLNYPSSRVRTRFLENMVRMAPPYPDLNMIETYVCQICEDTFDYDLDSPDQLSGLTMITHLTATSDYHKVVVNYLAGFFYLLNSGNTKTRFHVLKLLLNLSENLVMTKRLLVTDSVSEFMDLINREESDENIQIVLAIFETISKHIQKEALFSDDDDDDEEEDAVNLEPFISAFREAEKIAKELKRKPGNQKAP
# Target: T1, Flag‐tagged Tipe1 (bait of the IP/mass spectrometry)
# Experiment: affinity purification with mass spectrometry; IP by Flag-tagged Tipe1 from MIN6 cells, mass spectrometry of the precipitate
row,binding,Molecule
1,binds,B1
2,binds,B2
3,binds,B3
4,binds,B4
5,binds,B5

# Target: T1, Flag‐tagged Tipe1 (bait of the IP/mass spectrometry)
# Experiment: as above
# Remark: another data set of the same source
row,binding,Molecule
1,binds,USP9X (captured in the mass spectrometry) (from UniProt P70398 1-2559) (enzyme)
2,binds,"deubiquitinase USP5, endogenous in MIN6 cells (from UniProt P56399 1-858) (enzyme)"
3,binds,"Gαs, the α subunit of the G‐stimulating protein, endogenous in MIN6 cells (from UniProt P63094 1-394)"
4,binds,Krt15 (from UniProt Q61414 1-452)
5,binds,Celf4 (from UniProt Q7TSY6 1-486)
6,binds,WWP2 (captured in the mass spectrometry) (from UniProt Q9DBH0 1-870) (enzyme)
7,binds,Krt7 (from UniProt Q9DCV7 1-457)
